PubChem BioAssay AID686943 – Drosophila RNAi Screening Center, 2013
Aim: 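Search across the genome for regulators of signalling from receptor tyrosine kinase to ERK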 (primary screen). System: Drosophila S2R+ haemocyte-like cells expressing YFP-tagged ERK (Rolled). Knock-down reagent: long dsRNA against Drosophila genes. Conditions: insulin stimulation versus unstimulated cells; dose and duration not given. Detection: 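Per-plate z-scores of phospho-ERK immunostaining normalised to YFP-tagged ERK, measured with and without insulin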. Scale: replicate 1, z-score of dpERK with insulin and replicate 2, z-score of dpERK with insulin: higher = more active ERK per ERK-YFP after insulin; replicate 1, z-score of dpERK under basal conditions: higher = more basal active ERK per ERK-YFP; replicate 1, z-score of ERK-YFP with insulin: higher = more YFP-tagged ERK signal.
The deposit covers about 23,000 reagents; shown is an unselected part of those that have a named target and a result. 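Extra replicates exist only for a retested subset of genes; insulin dose and duration not given; both raised and lowered dpERK matter.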 A plus sign joins genes that one reagent is predicted to hit. Not given: the amount of reagent, the time to read-out.

gene,amplicon,"replicate 1, z-score of dpERK with insulin","replicate 2, z-score of dpERK with insulin","replicate 1, z-score of dpERK under basal conditions","replicate 1, z-score of ERK-YFP with insulin"
Surf6,DRSC15588,-0.11,0.31,0.98,-1.25
Gyc88E,DRSC15547,0.78,-0.58,-0.5,0.12
SdhAL,DRSC10539,0.49,0.35,-0.04,0.12
CG3942,DRSC15525,0.08,0.21,-0.02,0.06
CG12945,DRSC14573,0.52,0.62,-0.14,-0.29
Rad1 + Sws1,DRSC00778,-0.43,0.05,-0.52,-0.15
Mlc1,DRSC16740,0.06,0.02,-0.5,-0.1
CG15695,DRSC15117,-0.18,-0.26,-0.45,0.47
Swt1,DRSC20028,-1.4,0.26,0.41,0.47
Lamtor3,DRSC02815,-0.8,-1.39,-0.44,0.48
CG13083,DRSC02187,-0.14,-0.16,0.89,0.34
miple1,DRSC08722,1.21,1.12,0.13,-1.49
ND-B8,DRSC00449,-0.49,0.17,-0.18,-0.07
CG34229,DRSC06316,0.2,0.14,0.37,-0.4
ND-42,DRSC16754,-0.1,-1.26,-0.76,0.45
IKKbeta,DRSC16714,0.15,0.34,0.18,-0.21
IA-2,DRSC00304,0.31,-0.08,-0.11,-0.8
IA-2,DRSC00652,1.33,1.2,-0.6,-1.1
ppk15,DRSC14733,-2.15,-0.05,0.15,-0.51
CG13069,DRSC09952,-0.22,0.42,-0.56,0.83
mRpL38,DRSC19734,-0.13,0.83,-0.68,1.38
Alp8,DRSC04353,-0.01,-0.42,-0.49,0.44
CG30487,DRSC05377,1.57,0.86,0.63,-1.06
Tom,DRSC11306,0.01,0.21,0.83,0.14
CG4168,DRSC01446,0.68,-0.19,-0.42,-0.31
CG4168,DRSC01447,1.23,1.27,-0.65,-0.08
CG4168,DRSC01933,0.47,0.31,-0.37,-0.05
CG4168,DRSC21319,0.63,-0.36,-0.44,-1.19
CG4168,DRSC22789,-0.11,0.67,0.8,0.42
CG11563,DRSC14327,-0.41,1.24,0.9,-0.09
l(2)dtl,DRSC04697,-1.99,-2.42,-4.66,-3.59
GstD7,DRSC16688,1.44,0.77,2.14,-0.17
Gr33a,DRSC02589,0.56,0.02,0.57,-0.08
Drsl5,DRSC08159,0.15,-0.19,0.19,-0.16
CG30103,DRSC06894,0.27,1.57,1.1,-0.14
LManII,DRSC01986,0.03,0.02,1.06,-0.29
elgi,DRSC10242,-0.02,0.34,0.03,0.38
CG15649,DRSC04240,0.35,0.03,0.97,0.27
CG9698,DRSC16539,-0.09,0.21,0.1,-0.02
CG31688,DRSC02117,-2.34,0.48,-1.74,1.75
CG31688,DRSC02682,-0.13,-1.33,-1.34,-0.25
CG43439 + CG32388,DRSC08861,0.26,0.44,0.02,0.61
CG5815,DRSC14135,1.11,-0.24,0.05,0.47
Crz,DRSC16615,0.09,1.31,0,0.84
Spt3,DRSC15465,0.38,-0.87,-0.97,-1.81
Nxf3,DRSC21749,-0.5,-0.15,0.11,0.39
Dlip3,DRSC07401,-1.28,-0.48,-1.38,0.5
Acat1,DRSC17766,0.65,0.87,0.98,-0.37
iPLA2-VIA,DRSC10699,-0.02,0.79,-0.49,0.11
BEAF-32,DRSC05927,0.57,0.13,0.04,0.07
Unc-76,DRSC18193,0.64,0.6,0.72,0.77
Unc-76,DRSC18560,0.02,-0.04,1.06,0.3
CG8891,DRSC03120,0.18,0.02,-0.67,0.95
CG33722 + CG18749,DRSC12674,-0.06,0.79,0.44,0
CG33722 + CG18749,DRSC15386,0.41,-1.15,-0.31,0.02
yin,DRSC18854,0.34,0.17,0.15,-1.65
yin,DRSC21889,0.06,-0.11,0.24,0.6
